From article PMC4575180 (2015) come the findings set out here.

Amino acid sequences for entries named in this document (tags omitted).
UniProt Q08850: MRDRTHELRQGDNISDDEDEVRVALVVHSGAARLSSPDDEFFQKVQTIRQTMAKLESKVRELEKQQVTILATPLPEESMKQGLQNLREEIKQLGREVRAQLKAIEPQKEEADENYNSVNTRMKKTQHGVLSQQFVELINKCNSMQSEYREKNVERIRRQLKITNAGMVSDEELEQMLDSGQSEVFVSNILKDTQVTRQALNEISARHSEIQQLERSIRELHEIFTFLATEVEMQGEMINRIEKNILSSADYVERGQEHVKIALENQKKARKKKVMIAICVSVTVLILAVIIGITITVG
UniProt P70452: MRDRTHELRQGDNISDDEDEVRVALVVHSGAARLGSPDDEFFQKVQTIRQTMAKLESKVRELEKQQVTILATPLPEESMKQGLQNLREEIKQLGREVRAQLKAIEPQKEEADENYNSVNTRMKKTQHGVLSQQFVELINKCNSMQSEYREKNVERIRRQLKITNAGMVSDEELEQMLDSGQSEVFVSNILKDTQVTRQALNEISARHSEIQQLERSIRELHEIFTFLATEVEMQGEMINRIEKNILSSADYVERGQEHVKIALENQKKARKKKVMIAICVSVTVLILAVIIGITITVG

One test deals with T1, His6-SNAP-23 (UniProt O09044).
T1 sequence: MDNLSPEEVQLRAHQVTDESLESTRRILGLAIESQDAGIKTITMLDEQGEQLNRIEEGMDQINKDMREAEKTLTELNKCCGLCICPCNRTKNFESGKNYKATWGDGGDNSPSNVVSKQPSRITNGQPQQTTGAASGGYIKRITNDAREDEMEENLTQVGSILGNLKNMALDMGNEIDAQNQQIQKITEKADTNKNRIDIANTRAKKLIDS
The test is described as follows: co-purification on Ni-NTA after co-expression; untagged syntaxin4 co-expressed with His6-SNAP-23 in E. coli BL21(DE3); lysate with beta-OG on Ni-NTA resin, Buffer B (25mM HEPES-KOH pH 7.5, 0.4M KCl, 10% glycerol, 20mM imidazole), 4°C, eluted with 200mM imidazole.

The next test addresses T2, syntaxin3 (Rattus norvegicus (Rat), UniProt Q08849).
T2 chain: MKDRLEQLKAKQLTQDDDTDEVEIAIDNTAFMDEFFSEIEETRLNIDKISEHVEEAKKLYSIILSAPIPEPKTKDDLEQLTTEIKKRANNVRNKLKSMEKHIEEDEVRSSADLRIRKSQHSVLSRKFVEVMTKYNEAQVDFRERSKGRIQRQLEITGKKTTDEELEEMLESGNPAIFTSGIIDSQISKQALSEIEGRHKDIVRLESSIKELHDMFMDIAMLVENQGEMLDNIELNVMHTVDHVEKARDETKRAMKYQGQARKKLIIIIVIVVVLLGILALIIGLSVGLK
The test is described as follows: pull-down; membrane-anchored full-length syntaxins with Munc18b or Munc18c (S4C Fig); bait and conditions not shown; both purified.

Another test concerns the target syntaxin4 (rat) (UniProt Q08850). Described as above.

No constants are given. Whether binding was seen depends on the method and setting. Some binding calls cover weakened binding; strength is not graded here. For part of these data: Sequences can lack the tags named with a protein.

Consider “untagged syntaxin4 (from UniProt P70452 1-298)”, for which, in the test with His6-SNAP-23, the binding entry is “binds”.

B1: Munc18b (protein, UniProt Q62753 1-594)
chain: MAPLGLKAVVVEKILSGVIRSVKKDGEWKVLIMDHPSMRILSSCCKMSDILAEGITIVEDINKRREPIPSLEAIYLLSPTEKSVQALIADFQGTPTFTYKAAHIFFTDTCPEPLFSELGRSRLAKVVKTLKEIHLAFLPYEAQVFSLDAPHSTYNLYCPFRAGERGRQLDVLAQQIATLCATLQEYPSIRYRKGPEDTAQLAHAVLAKLNAFKADTPSLGEGPEKTRSQLLIMDRAADPVSPLLHELTFQAMAYDLLHIEQDTYRYETTGLSESREKAVLLDEDDDLWVELRHMHIADVSKKVTELLKTFCESKRLTTDKANIKDLSHILKKMPQYQKELNKYSTHLHLADDCMKHFKGSVEKLCGVEQDLAMGSDAEGEKIKDTMKLIVPVLLDASVPPYDKIRVLLLYILLRNGVSEENLAKLIQHANVQSYSNLIRNLEQLGGTVTNSAGSGTSSRLERRERMEPTYQLSRWSPVIKDVMEDVVEDRLDRKLWPFVSDPAPVSSSQAAVSSARFGHWHKNKAGIEARAGPRLIVYIVGGVAMSEMRAAYEVTRATEGKWEVLIGSSHILTPTRFLDDLRTLDQKLEDIALP
For the molecule B1, the binding result with syntaxin3 and with syntaxin4 (rat) was “binds” in each case.
